Experimental data published in PubChem BioAssay AID504467 (National Center for Advancing Translational Sciences (NCATS), 2011).
The campaign covered roughly 330,000 compounds. About 7,700 (2.3%) were called active. Inconclusive results, whose numbers are uncertain, are shown with a selection of clear calls. The call rests on the fitted dose curve; in most records, active means well fitted inhibition curve with a large enough effect; inconclusive means small, poorly fitted or top-dose-only effect, or effect the other way; inactive means flat fitted curve, though single readings scatter. Where the call is inconclusive, the potency comes from a doubtful curve fit.

Experiment: qHTS screen for small molecules that inhibit ELG1-dependent DNA repair in human embryonic kidney (HEK293T) cells expressing luciferase-tagged ELG1; further: nearly all actives have a fitted effect of over 55% in size
Details: HEK293T ELG1-luciferase reporter, luminescence, 16 h, DNA damage induced by 5-fluorouridine; series mostly up to 46.1 µM
How it was run: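 DMSO vehicle served as the neutral condition. Each well held 2,000 cells given 5-fluorouridine plus compound; after 16 hr at 37 °C/5% CO2, ONE-Glo was added and luciferase measured 30 min later.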
Potency means the concentration at half of the fitted maximal effect.

Compound | Potency
CCOC(=O)CSc1nnc(SCCN2C(=O)c3ccccc3C2=O)s1 | inactive
CCCC(=O)N=c1sc2cccc(F)c2n1C | inconclusive: 16.4 µM [activator, partial curve]
CCCn1c(=NC(=O)c2c(-c3c(F)cccc3Cl)noc2C)c(C(=O)OCC)cc2c(=O)n3ccccc3nc21 | inconclusive: 6.51 µM [inhibitor, single point]
CCCNC(=O)c1c(N)n(-c2cc(OC)cc(OC)c2)c2nc3ccccc3nc12 | active: 18.4 µM
COc1ccc(CC(=O)N[C@@H](C)C(=O)N2CCC3(CC2)NCCc2[nH]cnc23)cc1 | inactive
Cc1ccc(C)c(NC(=O)CSc2nc(C)cc(C)c2C#N)c1 | inconclusive: 16.4 µM [activator, single point]
CCOC(=O)c1sc(NC(=O)CCN2C(=O)c3cccc([N+](=O)[O-])c3C2=O)c(C(=O)OCC)c1C | inactive
CC(C)(C)NC(=O)CSc1nnc(-c2c[nH]c3ccccc23)o1 | inconclusive: 13 µM [activator, single point]
CC(=O)N/N=C\c1cccc(OC/C=C/c2ccccc2)c1 | inconclusive: 1.64 µM [activator, partial curve]
C1=C(CCNc2ncnc3c2[nH]c2ccccc23)CCCC1 | inactive
CN(C(=O)COC(=O)CCc1c[nH]c2ccccc12)c1ccccc1 | inactive
N/C(=N/O)c1nc(N2CCCC2)nc(N(c2ccccc2)c2ccccc2)n1 | inactive
CC1CC(C)CN(C(=O)COc2ccc([N+](=O)[O-])cc2Cl)C1 (centres undefined) | inconclusive: 29.1 µM [inhibitor, single point]
Cc1[nH]n(-c2ccccc2)c(=O)c1N=Nc1ccc(C(=O)O)cc1 | inconclusive: 16.4 µM [activator, single point]
CCOC(=O)c1sc(NC(=S)NC(=O)C2CC2)cc1C | inconclusive: 29.1 µM [activator, single point]
CCOC(=O)N1CCN(C(=O)COc2ccc(S(=O)(=O)NC(C)C)cc2)CC1 | inactive
COc1ccc(C(=O)Nc2ccc3oc(Cc4ccc(Cl)cc4)nc3c2)cc1OC | active: 20.6 µM
O=C(/C=C\Nc1ccccn1)c1ccccc1 | inconclusive: 0.316 µM [activator, partial curve, poor fit]
CCCCNc1c(-c2ccc(OC)c(Sc3ccc(OC)cc3)c2)nc2ccc(Cl)cn12 | inconclusive: 23.1 µM [inhibitor, partial curve, poor fit]
C=CCn1c(N)c(C(=O)Nc2cccc(C)c2)c2nc3ccccc3nc21 | inactive
C=CCCC(=O)Nc1nc(C)c(-c2csc(Nc3cc(Cl)ccc3OC)n2)s1 | inconclusive: 23.1 µM [inhibitor, partial curve, poor fit]
COc1cc([N+](=O)[O-])ccc1NC(=O)Cc1ccc(C)cc1 | inconclusive: 23.1 µM [inhibitor, single point]
CN1C(=O)C2(OCC(COc3ccc(Cl)cc3)O2)c2ccccc21 (centres undefined) | inactive

Fetched one by one from the list above:
Compound | Potency
CC(C)(C)NC(=O)CSc1nnc(-c2c[nH]c3ccccc23)o1 | inconclusive: 13 µM [activator, single point]
CC(=O)N/N=C\c1cccc(OC/C=C/c2ccccc2)c1 | inconclusive: 1.64 µM [activator, partial curve]
COc1cc([N+](=O)[O-])ccc1NC(=O)Cc1ccc(C)cc1 | inconclusive: 23.1 µM [inhibitor, single point]
CCCCNc1c(-c2ccc(OC)c(Sc3ccc(OC)cc3)c2)nc2ccc(Cl)cn12 | inconclusive: 23.1 µM [inhibitor, partial curve, poor fit]

(further entries)

Compound | Potency
COc1cc2c(cc1OC)C(=S)NC1(CCCC1)C2 | inactive
CC(=O)c1c(C)[nH]c(C(=O)NC2CCSc3ccccc32)c1C (centres undefined) | active: 5.8 µM
CC1CCN(S(=O)(=O)c2ccc3c(c2)N(CC(=O)NCCCN2CCCC(C)C2)C(=O)CS3)CC1 (centres undefined) | inconclusive: 32.6 µM [activator, partial curve, poor fit]
Cc1ccc(NC2CCCCC2NS(=O)(=O)c2ccccc2)c(C)c1 (centres undefined) | inactive
CC(=O)c1ccccc1NC(=O)COC(=O)/C=C/c1ccc(OC(F)F)cc1 | inconclusive: 0.231 µM [inhibitor, single point]
CC(C)c1ccccc1OCCNC(=S)NC(=O)c1cccnc1 | inconclusive: 29.1 µM [inhibitor, single point]
CC(C)NS(=O)(=O)c1ccc(CCC(=O)Nc2cc(Cl)ccc2Oc2ccccc2)cc1 | inconclusive: 18.4 µM [inhibitor, single point]
CCOc1cc(Br)c(COc2ccc(C)nc2[N+](=O)[O-])cc1OCC | inconclusive: 20.6 µM [inhibitor, single point]
CN(C)c1ccc(S(=O)(=O)N2CCCCC2)cc1NC(=O)CCNC(=O)c1ccco1 | inactive
O=C1C2CCCN2C(=S)N1c1cc(Cl)ccc1Cl (centres undefined) | inactive
NC(=O)[C@H]1CC2(CC(c3cccc(NC(=O)[C@H]4CCC(=O)N4)c3)=NO2)CN1C(=O)c1ccccc1C(=O)c1ccccc1 (some centres undefined) | inconclusive: 16.4 µM [activator, partial curve, poor fit]
O=C(Nc1ccccc1)O/N=C/c1ccc(F)cc1 | inconclusive: 3.66 µM [activator, partial curve]
COC(=O)c1ccc(NC(=S)N2CCN(Cc3ccccc3OC)CC2)cc1 | inconclusive: 29.1 µM [inhibitor, single point]
CCN(c1ccccc1)S(=O)(=O)c1cc2c(cc1C)n(C)c(=O)c(=O)n2C | inconclusive: 11.6 µM [activator, partial curve, poor fit]
COc1ccc(C(=O)Nc2nc(CC(=O)NCCc3cccc(OC)c3)cs2)cc1 | inactive
COc1cc(/C=N/NC(=O)NC2CCCCC2)ccc1O | inconclusive: 29.1 µM [activator, single point]
O=C(Nc1ccc(-c2nc3ccccc3[nH]2)cc1)c1ccco1 | inconclusive: 4.11 µM [activator, partial curve]
Cc1ccccc1NS(=O)(=O)c1ccc2c3c(cccc13)C(=O)N2C | inconclusive: 20.6 µM [activator, partial curve]
CCN(CC)S(=O)(=O)c1ccc(N2CCOCC2)c(NS(=O)(=O)c2ccc(C)cc2)c1 | inconclusive: 32.6 µM [activator, partial curve, poor fit]
Cc1ccc([N+](=O)[O-])c(OCCn2cnc3ccccc32)c1 | inconclusive: 29.1 µM [inhibitor, single point]
CC(C)CN(CC(C)C)CC(O)CN(c1ccccc1)S(=O)(=O)c1ccccc1[N+](=O)[O-] (centres undefined) | inconclusive: 20.6 µM [inhibitor, single point]
Cc1ccc(CC(=O)NC2CCSC2=O)cc1 (centres undefined) | inactive
Cc1ccc(/C(N)=N/OC(=O)/C=C/c2ccccc2)cc1 | inconclusive: 29.1 µM [activator, single point]

Compound | Potency
COc1ccc(C(C(=O)NC(C)C)N(C(=O)CCC(=O)Nc2nccs2)c2ccccc2F)cc1 (centres undefined) | inactive
CC(=O)c1ccc(N(CC(=O)NC2CCCCC2)C(=O)c2csnn2)cc1 | inconclusive: 18.3 µM [activator, single point]
Cc1cc(C(=O)NNS(=O)(=O)c2ccc(F)cc2)nn1C(C)(C)C | inconclusive: 18.3 µM [activator, partial curve, poor fit]
COc1ccc([N+](=O)[O-])c(S(=O)(=O)c2ccccc2)n1 | inconclusive: 25.9 µM [inhibitor, single point]
Cc1cccc(C)c1-n1c(SCC(=O)N2CC(=O)Nc3ccccc32)nc2ccccc2c1=O | inactive
CCN(CC)CCOC(=O)c1ccc(N/C=C(/C#N)c2nc(-c3ccc(OC)c(OC)c3)cs2)cc1 | inactive
Cc1ccc(C)c(N(C(=O)CNC(=O)c2ccco2)C(C(=O)NC2CCCCC2)c2cccnc2)c1 (centres undefined) | inactive
Cn1c(C(=O)NCCc2ccsc2)cc2c(=O)n(C)c3ccccc3c21 | inconclusive: 18.4 µM [inhibitor, partial curve]
CCOC(=O)Cn1c(=O)c(F)cn(Cc2ccc(OC)c([N+](=O)[O-])c2)c1=O | inactive
Cc1nc(NC(=O)c2cccs2)ccc1Br | inconclusive: 9.2 µM [activator, partial curve]
COc1ccc(CN2CCCC(C(=O)c3ccc(Cl)cc3)C2)cc1Cn1cncn1 (centres undefined) | inconclusive: 25.9 µM [inhibitor, single point]
COc1ccccc1CCNC(=O)CN1C(=O)NC2(CCCC2)C1=O | inconclusive: 2.31 µM [activator, single point]
O=C(N/N=C/c1ccncc1)c1ccc(NC(=O)c2ccc(Cl)cc2)cc1 | inconclusive: 20.6 µM [activator, single point]
Clc1ccc(CN2C3=NCCCN3c3ccccc32)cc1 | inconclusive: 23.1 µM [inhibitor, single point]
O=[N+]([O-])c1ccc(S(=O)(=O)NCCS(=O)(=O)N2CCN(c3ccccc3)CC2)cc1 | inconclusive: 29.1 µM [inhibitor, single point]
Cc1ccc(NC(=O)COc2ccc(Br)cc2C)cc1 | inconclusive: 23.1 µM [activator, partial curve]
Cc1nn(C(=O)c2cccc([N+](=O)[O-])c2)c(C)c1Cl | inactive
Cc1nc(-c2ccccc2)cc(=O)[nH]1 | inactive
COc1ccc(-n2c(SCC(=O)Nc3ccccc3)nc(O)cc2=O)cc1 | inconclusive: 23.1 µM [activator, partial curve, poor fit]
COc1ccc(C(=O)Nc2ccc3c(c2)nc(CCNC(=O)c2ccco2)n3C)cc1 | inconclusive: 11.6 µM [activator, partial curve]
NS(=O)(=O)c1ccc(NC(=S)Nc2ccn(Cc3cccc4ccccc34)n2)cc1 | active: 20.6 µM
CCCc1cc(=O)n2c([nH]c3ccccc32)c1C#N | inconclusive: 18.4 µM [activator, single point]
CCC(Sc1nc(C)cc(C)n1)C(=O)NC1=NN=C(c2ccc(C)cc2)CS1 (centres undefined) | inconclusive: 25.9 µM [inhibitor, single point]
